# According to the supplement of paper PMC7666118:
# By UniProt entry, the sequences of proteins in these tests, tags left out. Where a name states a change or a piece, a line headed by the entry shows the natural chain unless it says otherwise.
# UniProt P30405: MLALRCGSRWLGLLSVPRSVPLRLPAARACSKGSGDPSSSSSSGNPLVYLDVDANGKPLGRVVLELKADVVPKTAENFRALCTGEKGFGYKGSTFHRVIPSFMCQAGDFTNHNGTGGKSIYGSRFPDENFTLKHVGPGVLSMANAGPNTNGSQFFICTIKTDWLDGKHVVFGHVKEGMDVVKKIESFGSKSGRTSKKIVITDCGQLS
# UniProt P48454, whole entry: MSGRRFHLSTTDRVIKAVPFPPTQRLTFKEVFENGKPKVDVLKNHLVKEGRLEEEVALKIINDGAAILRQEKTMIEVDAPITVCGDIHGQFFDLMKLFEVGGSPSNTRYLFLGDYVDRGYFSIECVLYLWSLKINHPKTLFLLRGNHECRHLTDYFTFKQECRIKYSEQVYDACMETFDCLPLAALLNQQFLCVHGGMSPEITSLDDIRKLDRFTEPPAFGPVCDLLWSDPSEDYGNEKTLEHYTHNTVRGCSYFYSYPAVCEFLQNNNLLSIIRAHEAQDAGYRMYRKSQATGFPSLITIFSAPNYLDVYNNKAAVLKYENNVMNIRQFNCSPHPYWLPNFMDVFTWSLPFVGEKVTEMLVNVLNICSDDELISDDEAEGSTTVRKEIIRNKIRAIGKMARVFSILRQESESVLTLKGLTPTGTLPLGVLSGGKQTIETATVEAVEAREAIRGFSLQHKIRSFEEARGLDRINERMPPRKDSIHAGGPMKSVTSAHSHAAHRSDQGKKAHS
# UniProt Q9Y3C6: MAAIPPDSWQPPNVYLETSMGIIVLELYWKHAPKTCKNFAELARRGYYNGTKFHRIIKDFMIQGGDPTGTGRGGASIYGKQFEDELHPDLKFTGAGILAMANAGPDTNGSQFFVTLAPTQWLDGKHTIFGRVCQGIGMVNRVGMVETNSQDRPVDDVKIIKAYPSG
# UniProt Q9Y255: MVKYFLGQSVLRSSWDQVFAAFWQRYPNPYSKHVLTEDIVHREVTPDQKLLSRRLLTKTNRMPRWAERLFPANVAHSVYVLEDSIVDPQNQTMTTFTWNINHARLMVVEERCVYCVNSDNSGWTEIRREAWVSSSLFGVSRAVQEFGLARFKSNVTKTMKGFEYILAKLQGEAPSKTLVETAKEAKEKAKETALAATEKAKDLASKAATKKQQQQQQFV
# UniProt Q8WV60: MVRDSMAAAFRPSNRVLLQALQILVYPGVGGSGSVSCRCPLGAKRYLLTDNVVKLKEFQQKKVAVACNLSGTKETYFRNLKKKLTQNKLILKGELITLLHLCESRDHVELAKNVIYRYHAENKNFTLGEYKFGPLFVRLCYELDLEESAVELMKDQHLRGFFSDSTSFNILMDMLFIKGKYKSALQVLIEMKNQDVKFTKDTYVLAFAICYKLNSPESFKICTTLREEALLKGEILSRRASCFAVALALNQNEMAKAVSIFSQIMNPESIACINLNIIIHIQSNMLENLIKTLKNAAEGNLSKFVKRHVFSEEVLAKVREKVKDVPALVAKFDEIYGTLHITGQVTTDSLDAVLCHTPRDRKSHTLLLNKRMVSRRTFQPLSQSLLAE
# UniProt Q8WZA1: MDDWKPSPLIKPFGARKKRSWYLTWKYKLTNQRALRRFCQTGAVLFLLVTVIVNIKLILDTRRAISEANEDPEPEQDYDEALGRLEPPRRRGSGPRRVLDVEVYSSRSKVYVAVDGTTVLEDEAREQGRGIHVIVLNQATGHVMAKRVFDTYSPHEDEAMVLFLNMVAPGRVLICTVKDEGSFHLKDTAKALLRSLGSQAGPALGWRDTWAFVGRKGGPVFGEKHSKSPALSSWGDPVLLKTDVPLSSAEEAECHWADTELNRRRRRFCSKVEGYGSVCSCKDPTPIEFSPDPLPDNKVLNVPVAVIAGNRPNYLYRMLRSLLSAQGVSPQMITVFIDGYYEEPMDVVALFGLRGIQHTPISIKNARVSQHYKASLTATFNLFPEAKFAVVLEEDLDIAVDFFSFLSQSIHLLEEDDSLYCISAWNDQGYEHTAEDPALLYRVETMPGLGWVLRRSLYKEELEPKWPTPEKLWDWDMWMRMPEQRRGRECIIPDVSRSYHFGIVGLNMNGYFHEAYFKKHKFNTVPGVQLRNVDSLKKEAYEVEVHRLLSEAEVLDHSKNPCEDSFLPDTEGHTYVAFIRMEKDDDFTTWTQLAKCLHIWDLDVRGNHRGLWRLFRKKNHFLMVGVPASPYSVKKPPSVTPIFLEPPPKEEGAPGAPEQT
# UniProt P43686, whole entry: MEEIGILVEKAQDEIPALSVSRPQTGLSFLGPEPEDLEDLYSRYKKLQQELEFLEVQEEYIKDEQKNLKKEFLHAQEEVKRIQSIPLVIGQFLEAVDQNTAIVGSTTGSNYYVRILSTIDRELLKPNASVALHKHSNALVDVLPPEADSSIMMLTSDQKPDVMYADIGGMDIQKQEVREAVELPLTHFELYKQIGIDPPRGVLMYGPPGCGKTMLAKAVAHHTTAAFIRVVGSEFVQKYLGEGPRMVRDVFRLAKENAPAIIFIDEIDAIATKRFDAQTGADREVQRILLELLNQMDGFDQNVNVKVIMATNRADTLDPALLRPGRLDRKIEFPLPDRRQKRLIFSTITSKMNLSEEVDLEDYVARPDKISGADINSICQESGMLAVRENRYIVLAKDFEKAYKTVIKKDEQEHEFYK
# UniProt Q96HA1, whole entry: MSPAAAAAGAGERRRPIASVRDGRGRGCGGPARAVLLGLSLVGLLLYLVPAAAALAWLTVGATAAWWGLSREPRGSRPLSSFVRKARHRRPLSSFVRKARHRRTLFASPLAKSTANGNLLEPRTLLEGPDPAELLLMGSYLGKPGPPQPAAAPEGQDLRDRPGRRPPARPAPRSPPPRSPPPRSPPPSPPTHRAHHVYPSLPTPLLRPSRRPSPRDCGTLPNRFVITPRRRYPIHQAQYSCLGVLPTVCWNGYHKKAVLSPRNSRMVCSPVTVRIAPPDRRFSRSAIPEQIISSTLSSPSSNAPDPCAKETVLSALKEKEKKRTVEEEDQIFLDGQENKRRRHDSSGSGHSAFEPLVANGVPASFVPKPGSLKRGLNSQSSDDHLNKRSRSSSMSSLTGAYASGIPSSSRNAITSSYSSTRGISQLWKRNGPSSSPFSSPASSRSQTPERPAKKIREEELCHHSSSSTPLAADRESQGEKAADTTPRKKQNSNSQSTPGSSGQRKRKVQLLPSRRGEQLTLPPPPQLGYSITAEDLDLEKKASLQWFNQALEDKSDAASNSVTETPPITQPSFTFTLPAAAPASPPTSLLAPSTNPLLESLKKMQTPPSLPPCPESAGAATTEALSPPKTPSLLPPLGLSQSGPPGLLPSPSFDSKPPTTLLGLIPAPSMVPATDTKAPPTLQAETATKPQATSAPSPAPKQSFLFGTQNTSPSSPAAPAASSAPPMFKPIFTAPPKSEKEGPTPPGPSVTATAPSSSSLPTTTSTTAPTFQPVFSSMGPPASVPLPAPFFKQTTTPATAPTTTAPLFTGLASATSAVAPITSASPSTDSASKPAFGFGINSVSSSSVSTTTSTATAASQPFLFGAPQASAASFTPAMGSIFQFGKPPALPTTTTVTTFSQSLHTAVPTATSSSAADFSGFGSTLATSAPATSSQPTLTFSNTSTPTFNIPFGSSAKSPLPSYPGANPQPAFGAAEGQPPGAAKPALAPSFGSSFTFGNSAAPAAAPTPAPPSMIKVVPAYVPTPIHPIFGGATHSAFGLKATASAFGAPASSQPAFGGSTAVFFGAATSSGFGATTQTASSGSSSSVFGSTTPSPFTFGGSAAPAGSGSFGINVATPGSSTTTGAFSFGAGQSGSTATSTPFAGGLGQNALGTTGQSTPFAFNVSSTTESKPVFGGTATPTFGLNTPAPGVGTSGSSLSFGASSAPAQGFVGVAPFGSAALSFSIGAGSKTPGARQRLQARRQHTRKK
# UniProt Q96BW5: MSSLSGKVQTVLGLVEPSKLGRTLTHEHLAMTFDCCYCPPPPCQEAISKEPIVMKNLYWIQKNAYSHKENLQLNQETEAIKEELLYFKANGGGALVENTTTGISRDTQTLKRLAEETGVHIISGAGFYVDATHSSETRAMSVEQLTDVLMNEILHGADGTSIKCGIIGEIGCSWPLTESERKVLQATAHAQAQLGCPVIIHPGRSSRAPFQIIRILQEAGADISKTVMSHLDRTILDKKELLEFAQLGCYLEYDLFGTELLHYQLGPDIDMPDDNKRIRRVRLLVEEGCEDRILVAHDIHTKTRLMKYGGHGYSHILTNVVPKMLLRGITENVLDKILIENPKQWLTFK
# Some of the results follow.
# Compound: COc1ccc(Cn2ccc3cc(C)c(C(=O)NO)cc32)cc1
# Assay: dose-dependent thermal stabilisation call (2D-TPP, DLPTP, 10% FDR) (binary (1 = stabilised)); higher = stabilised by the compound
# Settings: system: HL-60 intact cells; concentration range 0.04-10 µM
# Experimental: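 2D thermal proteome profiling in intact HL-60 cells treated with BRD-3811 (0, 0.04, 0.29, 2, 10 uM) for 90 min at 37 C, then heated 3 min at one of 12 temperatures (42-63.9 C). Soluble protein was quantified by TMT10 MS. The value is the DLPTP call of the paper: dose-dependent thermal stabilisation over all temperatures at 10% FDR (F-test of a dose-response against a flat model); one experiment, one call per tested protein.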
row,Target,dose-dependent thermal stabilisation call
1,PPIF (UniProt P30405),inactive: 0
2,PPP3CC (UniProt P48454),inactive: 0
3,PPIL1 (UniProt Q9Y3C6),inactive: 0
4,PRELID1 (UniProt Q9Y255),active: 1
5,PTCD2 (UniProt Q8WV60),inactive: 0
6,POMGNT1 (UniProt Q8WZA1),inactive: 0
7,PSMC4 (UniProt P43686),inactive: 0
8,POM121 (UniProt Q96HA1),inactive: 0
9,PTER (UniProt Q96BW5),inactive: 0

# A different layout for part of the listing above:
row	Target	dose-dependent thermal stabilisation call
6	POMGNT1 (UniProt Q8WZA1)	inactive: 0
7	PSMC4 (UniProt P43686)	inactive: 0
